## Primary screen of a compound library

Source: ChEMBL document CHEMBL3988442, “University of Dundee, Small-Polar-MMV Screening Library” (2021).

The filed quantity is “Percent Effect” (%). The controls that fix the scale are not given in the record; negative values are as filed. This is an unselected part of the compounds tested.

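Whole-cell assay for inhibitors of Mycobacterium tuberculosis growth, labelled Cornell in the record; the read-out is not stated. The concentration is filed as 10 mM, unlikely as a test dose, so the dose is not known. Higher means stronger inhibition (inferred from two other growth screens of the library). Of about 53,000 compounds tested this way, about 900 (1.7%) reached 50% or more in at least one test.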

O=C(O)C(F)(F)F.[H][C@@]12C[C@@H](C(=O)NC(C)C)C[C@@]1([H])N(Cc1nccs1)CCO2 read 20.11%.
Cl.O=C(c1cc2c(s1)CCCC2)N1CCc2nc(C3CCCN3)ncc2C1 (configuration not stated) read -99.28%.
CN(Cc1cccc(F)c1)C(=O)c1ccncc1Cl read 12.14%.
Cc1cc(OCC(=O)NS(=O)(=O)c2c(C)noc2C)ccc1Cl read 39.96%.
[H][C@]12CNCCN1C[C@@H](C(=O)OCC)[C@@H]2c1ccccc1 read 8.412%.
Br.Cc1ccc(N(CC(=O)c2ccc(Br)cc2)C2=NCCCCC2)cc1 read 102.8%.
Cc1ccc(C(=O)N(C)Cc2csc(Br)c2)c(=O)[nH]1 read 17.13%.
Cc1nn(CC(C)C)c(N(C)C)c1CNCCCNS(C)(=O)=O read 49.77%.
COc1c(CNCc2ccc(Cn3ccnc3)cc2)c(C)nn1C read 34.93%.
CCOCCN1CCN(Cc2coc(-c3cccc(F)c3)n2)CC1 read 7.791%.
O=C(CN1CCCC1Cn1cncn1)Nc1cccnc1 (configuration not stated) read 20.81%.
COC(=O)Nc1cccc(C(=O)N(C)Cc2cccc(O)c2)c1 read 16.47%.
Cc1cc(C(C)NC(=O)c2c[nH]c(=O)c(Cl)c2)c(C)o1 (configuration not stated) read 15.99%.
Cc1nn(C)c(C)c1CNCc1cccnc1N1CCOCC1 read 15.39%.
Cc1nn(COc2cccc(F)c2)c(C)c1NC(=O)C1CC1 read -2.02%.
CCCc1nc(CN(CC)C(=O)c2ccc3ncsc3c2)no1 read 5.879%.
N#Cc1cccc(N2CC3(CCN(C(=O)c4ccnnc4)C3)CC2=O)c1 (configuration not stated) read -3.05%.
O=C(Nc1nc2c(s1)CN(S(=O)(=O)C1CC1)CC2)c1cccc(Cl)c1 read 52.55%.
O=C(O)C(F)(F)F.[H][C@@]12CCN(Cc3cccc(C)c3)C[C@]1([H])[C@@H](CNC(=O)N(C)C)OC2 read 6.851%.
COCc1nc(C(=O)N2CCCC2c2ccncc2)cs1 (configuration not stated) read 3.007%.
[H][C@@]12CCCN1C[C@@H](CCSC)N(Cc1cn(C)nc1C)C2 read -32.61%.
Cc1csc(N2CCN(C(=O)Cc3ccc(C)s3)CC2)n1 read 1.392%.
CCn1nc(C)c(CNC(=O)C2COc3ccccc3C2)c1C (configuration not stated) read 17.42%.
CC(=O)Nc1ccc(C(=O)N2CCSCC2c2ccc(C)o2)cc1 (configuration not stated) read 22.6%.
CC(Cc1ccc(Cl)cc1)N(C)C(=O)NCCS(C)(=O)=O (configuration not stated) read -35.96%.
Cc1cccc(C2CCCN2C(=O)CN(C)S(C)(=O)=O)c1C (configuration not stated) read -4.434%.
CC(C)CCN1CCN(Cc2nc(C3CC3)no2)CC1 read 10.7%.
[H][C@@]12C[C@H](C(=O)N3CCCC3)CN(CC3CC3)[C@]1([H])CCO2 read 17.57%.
CC(C)N(C)Cc1nnc2n1CCN(Cc1ccncc1)CC2.O=C(O)C(F)(F)F.O=C(O)C(F)(F)F.O=C(O)C(F)(F)F read 12.76%.
CCN1CCC(NC(=O)CN2CCCCC2Cn2cncn2)CC1 (configuration not stated) read -0.6501%.
O=C(c1ccc2nccnc2c1)N1C[C@@H](CN2CCCC2)[C@@H](CO)C1 read -4.309%.
O=C(CCc1nccs1)N1CCCC(n2ccnc2)C1 (configuration not stated) read -31.26%.
CC(C)NC(=O)N1CCC(c2nnc3ccc(C(=O)N(C)C)cn23)C1 (configuration not stated) read 3.979%.
Cc1cc(=O)n(C)cc1NC(=O)NCc1cccc(F)c1 read -26.48%.
Fc1cnc(N2CCn3c(CN4CCCC4)nnc3C2)nc1.O=C(O)C(F)(F)F read -6.448%.
O=C(O)C(F)(F)F.[H][C@]12CCC[C@@H](CN(C)C)[C@@]1([H])CN(c1ccc(C)nn1)C2 read -35.3%.
CNC(=O)COc1cccc(CNCc2c(C)noc2C)c1 read 12.26%.
Cc1cccn2cc(CC(=O)N3CCCC(n4cncn4)C3)nc12 (configuration not stated) read -80.4%.
CCCOc1cc(CNC(=O)Nc2cccc(C(C)=O)c2)ccn1 read -9.579%.
O=C(c1ccc(=O)[nH]n1)N1CCc2ccccc21 read 9.801%.
CCOCC1CN(C(=O)COc2ccccc2)Cc2cn(C)nc21 (configuration not stated) read -36.51%.
CCOc1cc(NC(=O)C2CC(=O)N(c3cccc(OC)c3)C2)ncn1 (configuration not stated) read 29.59%.
O=C(O)C(F)(F)F.[H][C@@]12CCCO[C@]1([H])[C@H](NC(=O)C1CC1)CN2Cc1ccoc1 read 6.963%.
CN(C)C(=O)N1CCCC2(CCN(c3ccsc3)C2=O)C1 (configuration not stated) read -58.1%.
CCCc1nc(C)c(CNc2nc(C)nc3oc(C)nc23)s1 read 4.879%.
CCS(=O)(=O)c1ccccc1N1CCC(NC(=O)c2ccc[nH]2)CC1 read 19.1%.
COc1cc(F)c(C(=O)NCc2ccon2)c(F)c1 read 8.524%.
CC(C)CN1CC(c2nc(-c3ccsc3)c[nH]2)CC1=O (configuration not stated) read 2.791%.
O=C(NCCc1ccccc1)c1cn(CCNCc2cccnc2)nn1 read -9.397%.
Cc1ccc(C(=O)N(C)Cc2cc(Br)cs2)cn1 read 13.16%.
CN(C)CCn1c([C@@H]2CCCO2)cc2cccnc21.Cl read 3.011%.
CC(C)CSCCCNC(=O)C1CCOCC1 read 0.7613%.
O=c1cc(N2CCOCC2)cnn1CCc1ccc(F)cc1 read 5.963%.
Cc1nc(C)n(CC2CN(CCCOc3ccc(F)cc3)CCO2)n1 (configuration not stated) read -7.77%.
O=C1OC2(CCN(C3CCCOC3)CC2)CN1CCc1ccccc1 (configuration not stated) read -45.98%.
CCC(=O)N1CCC2(CC1)CC(CC(N)=O)c1ccc(F)cc12 (configuration not stated) read -55.74%.
CNS(=O)(=O)c1cccc(C(C)NCc2ccco2)c1 (configuration not stated) read 2.808%.
COCC1CN(c2ccc(C)nn2)Cc2cnn(C)c21.O=C(O)C(F)(F)F.O=C(O)C(F)(F)F (configuration not stated) read -4.226%.

Repeated from the top, 4 entries:

* O=C(O)C(F)(F)F.[H][C@@]12C[C@@H](C(=O)NC(C)C)C[C@@]1([H])N(Cc1nccs1)CCO2 : 20.11%
* Cl.O=C(c1cc2c(s1)CCCC2)N1CCc2nc(C3CCCN3)ncc2C1 (configuration not stated) : -99.28%
* CN(Cc1cccc(F)c1)C(=O)c1ccncc1Cl : 12.14%
* Cc1cc(OCC(=O)NS(=O)(=O)c2c(C)noc2C)ccc1Cl : 39.96%